In patent US5179091A, “Chalcones” (Adir et Compagnie, priority 1990, dated 1993):
At least one compound was matched to its structure with a doubt left.

Assay: Inhibition of formation of conjugated dienes formed by free-radical activity
Assay type: biochemical
Conditions: 10^-5 M concentration, linoleic acid emulsion, Fe2+/Fe3+ mixture
From the text: This methodology consists in generating free OH- radicals in an emulsion of linoleic acid, by means of a system consisting of an Fe^2+ /Fe^3+ mixture.

In the case of `CC(C)(C)c1cc(C=CC(=O)c2ccc3oc(=O)[nH]c3c2)cc(C(C)(C)C)c1O` [Example 2, 5-(3',5'-di-tert-butyl-4'-hydroxycinnamoyl)benzoxazolinone], the “inhibition of diene formation” value is reported as “approximately 75%”.
